PubChem BioAssay AID1259331, Drosophila RNAi Screening Center | 2017

Purpose: 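Knock-downs that alter ATP level after a high zinc chloride dose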 (primary screen)
System: Drosophila S2R+ cells
Reagent: long dsRNA against Drosophila genes
Time to read-out: 5 days (4 days knock-down, then 1 day zinc)
Conditions: zinc chloride at 15 mM final level for 1 day
Detection: 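Total cellular ATP measured by luciferase luminescence as a viability proxy, turned into Z scores from three plate copies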
Direction: mean Z score: higher = more ATP than other wells, better survival under zinc; ATP luminescence: higher = more ATP, more viable cells
Hit rule: 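a reagent is called a hit when its Z score is above 1.5 or below -1.5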
Meaning of the calls: active = hit, ATP up or down; inactive = not a hit
Here is one part, drawn at random, of about 3,100 deposited reagents. 126 of all reagents (4.1%) were called active. 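Calls are per reagent; zinc was so toxic that few knock-downs lowered ATP further, so most hits raise ATP.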 Raw values vary from plate to plate and are shown uncorrected. Reagents against one gene are numbered here. Names joined by + are all predicted targets of the reagent. Not given: the amount of reagent.

target gene | reagent | mean Z score | ATP luminescence, replicate 1 | ATP luminescence, replicate 2 | Outcome
CG32320 | 1 | 0.0119 | 49812 | 50189 | inactive
CG32320 | 2 | -0.784 | 55407 | 34729 | inactive
kon (kon-tiki) | 1 | -0.195 | 50748 | 56345 | inactive
kon (kon-tiki) | 2 | -0.153 | 62381 | 56256 | inactive
sas (stranded at second) | 1 | 0.642 | 88263 | 69704 | inactive
CG33090 | 1 | -0.104 | 53653 | 55927 | inactive
CG33090 | 2 | -0.19 | 55796 | 54870 | inactive
CG4313 | 1 | -0.456 | 39526 | 43297 | inactive
CG4313 | 2 | 0.62 | 65074 | 76942 | inactive
Karybeta3 (Karyopherin beta 3) | 1 | 0.0805 | 29667 | 33284 | inactive
Karybeta3 (Karyopherin beta 3) | 2 | 0.671 | 66154 | 76160 | inactive
rdog (red dog mine) | 1 | -1.78 | 25240 | 25829 | active
rdog (red dog mine) | 2 | -1.84 | 33524 | 31039 | active
CG9717 | 1 | 0.534 | 75640 | 74163 | inactive
Poxm + Ctr1B | 1 | 0.139 | 36456 | 57905 | inactive
Poxm + Ctr1B | 2 | -0.429 | 59637 | 53087 | inactive
CG10413 | 1 | -0.733 | 42591 | 49359 | inactive
CG32204 | 1 | 0.679 | 73821 | 80870 | inactive
CG32204 | 2 | 1.24 | 82294 | 78777 | inactive
GluRIIC (Glutamate receptor IIC) | 1 | -0.0381 | 56911 | 54373 | inactive
Ae2 (Anion exchanger 2) | 1 | -0.251 | 46280 | 38071 | inactive
Ae2 (Anion exchanger 2) | 2 | -0.3 | 26839 | 26719 | inactive
CG31522 | 1 | -0.527 | 57254 | 57382 | inactive
CG31522 | 2 | -0.138 | 43091 | 42902 | inactive
CG8034 | 1 | 0.508 | 55367 | 51698 | inactive
CG14053 | 1 | -0.658 | 55213 | 55061 | inactive
CG14053 | 2 | 0.099 | 53225 | 50686 | inactive
CG34396 | 1 | 1.54 | 69230 | 64034 | active
CG34396 | 2 | -0.515 | 34519 | 46520 | inactive
CG34396 | 3 | -0.321 | 66095 | 46623 | inactive
Tsp86D (Tetraspanin 86D) | 1 | -0.147 | 34417 | 55299 | inactive
MFS15 (Major Facilitator Superfamily Transporter 15) | 1 | -0.489 | 59079 | 60941 | inactive
MFS15 (Major Facilitator Superfamily Transporter 15) | 2 | -0.874 | 54030 | 41702 | inactive
Gr77a (Gustatory receptor 77a) | 1 | -0.551 | 52264 | 61660 | inactive
Gr77a (Gustatory receptor 77a) | 2 | -0.163 | 58454 | 50241 | inactive
CG4459 | 1 | -0.0288 | 35873 | 59654 | inactive
CG32263 | 1 | 0.531 | 58317 | 66480 | inactive
CG32263 | 2 | 0.466 | 69979 | 67149 | inactive
CR32011 + CR32009 + PlexB + 1 more | 1 | 0.141 | 49315 | 50378 | inactive
CR32011 + CR32009 + PlexB + 1 more | 2 | -0.338 | 50429 | 51269 | inactive
CG14778 | 1 | -0.766 | 51578 | 55145 | inactive
CG14778 | 2 | -0.246 | 53241 | 58746 | inactive
ppk3 (pickpocket 3) | 1 | 0.22 | 47720 | 37136 | inactive
ppk3 (pickpocket 3) | 2 | 0.217 | 68109 | 51372 | inactive
Rh3 (Rhodopsin 3) | 1 | -0.321 | 40056 | 41483 | inactive
Nrx-IV (Neurexin IV) | 1 | -0.413 | 28673 | 29759 | inactive
Nrx-IV (Neurexin IV) | 2 | 0.714 | 64490 | 68212 | inactive
CG4465 | 1 | -0.815 | 41702 | 39045 | inactive
CG4465 | 2 | -0.551 | 48269 | 54056 | inactive
VhaAC45 (Vacuolar H[+] ATPase AC45 accessory subunit) | 1 | -0.671 | 25245 | 25948 | inactive
VhaAC45 (Vacuolar H[+] ATPase AC45 accessory subunit) | 2 | 1.63 | 81653 | 77405 | active
Hip14 (Huntingtin-interacting protein 14) | 1 | -0.507 | 28879 | 26428 | inactive

Reformatted: 4 of the entries above
Karybeta3 (Karyopherin beta 3) #2 → mean Z score = 0.671; ATP luminescence, replicate 1 = 66154; ATP luminescence, replicate 2 = 76160; Outcome = inactive
rdog (red dog mine) #1 → mean Z score = -1.78; ATP luminescence, replicate 1 = 25240; ATP luminescence, replicate 2 = 25829; Outcome = active
rdog (red dog mine) #2 → mean Z score = -1.84; ATP luminescence, replicate 1 = 33524; ATP luminescence, replicate 2 = 31039; Outcome = active
CG9717 → mean Z score = 0.534; ATP luminescence, replicate 1 = 75640; ATP luminescence, replicate 2 = 74163; Outcome = inactive
